Measurements published in paper PMC12881681 (Molecular Pharmacology, 2025).

Test system: AOX1
Experiment: Risk ratio of clinical drug interaction (FDA guideline formula)
Set-up: species or system human
Conditions: kdeg 0.00033 min^–1 (average of 7 CYP enzymes); ratio ≥ 1.25 requires further investigation

SMILES	risk ratio (kobs + kdeg) / kdeg
C#Cc1cccc(Nc2ncnc3cc(OCCOC)c(OCCO)cc23)c1 [O-Desmethylerlotinib, O-desmethylerlotinib]	30–66
C#Cc1cccc(Nc2ncnc3cc(OCCO)c(OCCO)cc23)c1 [O-Didesmethylerlotinib, O-didesmethylerlotinib]	2.5–8.3
